Measured values taken from patent US12545653B2, “Compound as PPAR agonist and application thereof” (USA Elixiria Biotech Inc., priority 2019, dated 2026).

System: APP/PS1 transgenic mice
Assay: Alzheimer's disease model, eight-arm radial water maze and brain gene expression
Format: in vivo, mouse
Conditions: 30 days in food
Description: A common indicator used in academia in memory and dementia experiments is the number of errors in the water maze (reference memory). More errors mean poorer memory. On the last 3 days of dosing, eight-arm radial water maze was used by experimenters who were blind to drug treatment. As a classic experimental instrument, to detect slight deficits in learning and memory, the eight-arm water maze is more sensitive than not only Morris maze, but also Six-arm radial water maze. For details, see reference 8: Alamed J et al. Two-day radial-arm water maze learning and memory task; robust resolution of amyloid-related memory deficits in transgenic mice [J]. […] This experiment uses an eight-arm water maze built in accordance with the above literature. The eight-arm water maze is placed in a basin with an interior diameter of 102 cm. Each arm measures 30 cm long, 14.5 cm wide, and 40 cm high. Escape platform is located at the end of one of the arms. In the reference memory version of the task described here, the goal arm is held constant for all trials, with a different start arm on successive trials. On day one, mice received 12 trials, with trials alternating between visible and hidden platform. On day 2 and 3, mice received 12 additional trials but the platform was kept hidden throughout the trials. Entry into an incorrect arm was scored as a spatial reference error. Errors were averaged into three trial blocks, with four blocks per day, e.g., the first block (the 1st to 3rd trial), the second block (the 4th to 6th trial), and so on. […]. The line charts were made with the number of blocks as the abscissa and the average of the number of errors as the ordinate. At the end of the experiments, the cerebral cortex and hippocampus of the mice were removed, RNA was extracted, and the expression of many genes was analyzed by semi-quantitative RT-PCR. […] The difference is significant with P<0.05.

Compound: COc1cc2c(cc1OC)C(=O)C(CC1CCN(Cc3ccccc3)CC1)C2 (stereo not drawn) [donepezil, reference compound]
- number of errors in water maze on the third day (10 mg/kg body weight/day (donepezil 3 mg/kg body weight/day), 5 on the first day): ~1
- reduction in the number of errors (reference memory), third day compared with first day (10 mg/kg body weight/day (donepezil 3 mg/kg body weight/day), eight-arm water maze): significant
- expression levels of neuroprotective genes in the brain (klotho, MnSOD, Prx-2, Gng11, GluN2B, Bcl-xl) versus control group (RT-PCR): None of the abovementioned gene expression levels in donepezil group was significantly increased
